# Laboratory results as given in patent publication US5952465A, “Polypeptides that include conformation-constraining groups which flank a protein-protein interaction site” (Virginia Commonwealth University, priority 1998, dated 1999).
# At least one peptide structure holds a part that was inferred or is arguable (an end, a ring closure or a residue). Where a SMILES comes first, the peptide text is derived from it.
# What was measured:
# [1] = tested on: collagen-induced platelet aggregation; experiment: Inhibition of collagen-induced platelet aggregation in a whole blood aggregometer; format: cell-based; details: collagen or ADP
# [2] = tested on: ADP-induced platelet aggregation; experiment: Inhibition of ADP-induced platelet aggregation in a whole blood aggregometer; format: cell-based; details: Donor 1
SMILES,Inhibitory potency compared with the Arg-Gly-Asp-Ser peptide [1],Fold increase in inhibitory potency compared with P-1 [2] [fold]
"CC[C@H](C)[C@H](N)C(=O)N[C@@H](C)C(=O)N[C@@H](CCCNC(=N)N)C(=O)NCC(=O)N[C@@H](CC(=O)O)C(=O)N[C@@H](CCSC)C(=O)N[C@@H](CC(N)=O)C(=O)N[C@@H](C)C(=O)O [Peptide P-1, Ile-Ala-Arg-Gly-Asp-Met-Asn-Ala] (H-IARGDMNA-OH)",comparable with that of the Arg-Gly-Asp-Ser peptide,–
"CC[C@H](C)[C@H](N)C(=O)N[C@@H](C)C(=O)N[C@@H](CCCNC(=N)N)C(=O)NCC(=O)N[C@@H](CC(=O)O)C(=O)N[C@@H](CCSC)C(=O)N1CCC[C@H]1C(=O)N[C@@H](C)C(=O)O [Peptide P-3, Ile-Ala-Arg-Gly-Asp-Met-Pro-Ala] (H-IARGDMPA-OH)",–,1.30
